Test results reported in publication PMC8904830, “Differential recognition of canonical NF-κB dimers by Importin α3” (Nature Communications, 2022).

By UniProt entry, the sequences of proteins in these tests, tags left out. Where a name states a change or a piece, a line headed by the entry shows the natural chain unless it says otherwise. Residues count along the entry.
UniProt P19838, residues 41-351: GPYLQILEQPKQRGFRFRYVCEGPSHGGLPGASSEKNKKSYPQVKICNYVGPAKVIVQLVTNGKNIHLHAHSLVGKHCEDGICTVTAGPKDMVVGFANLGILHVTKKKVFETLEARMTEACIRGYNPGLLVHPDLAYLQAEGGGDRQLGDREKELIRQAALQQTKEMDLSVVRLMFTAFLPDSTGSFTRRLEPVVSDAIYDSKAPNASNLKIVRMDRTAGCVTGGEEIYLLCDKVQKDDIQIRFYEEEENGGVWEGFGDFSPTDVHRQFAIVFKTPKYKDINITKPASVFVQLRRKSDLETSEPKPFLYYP
UniProt Q04206, residues 1-290: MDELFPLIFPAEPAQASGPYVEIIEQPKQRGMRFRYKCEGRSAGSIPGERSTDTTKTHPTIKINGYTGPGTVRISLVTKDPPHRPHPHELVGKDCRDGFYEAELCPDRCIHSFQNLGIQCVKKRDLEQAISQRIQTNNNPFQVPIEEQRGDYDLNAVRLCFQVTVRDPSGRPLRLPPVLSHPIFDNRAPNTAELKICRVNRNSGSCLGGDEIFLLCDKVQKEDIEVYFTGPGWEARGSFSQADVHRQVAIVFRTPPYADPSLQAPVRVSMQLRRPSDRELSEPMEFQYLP
UniProt O00629: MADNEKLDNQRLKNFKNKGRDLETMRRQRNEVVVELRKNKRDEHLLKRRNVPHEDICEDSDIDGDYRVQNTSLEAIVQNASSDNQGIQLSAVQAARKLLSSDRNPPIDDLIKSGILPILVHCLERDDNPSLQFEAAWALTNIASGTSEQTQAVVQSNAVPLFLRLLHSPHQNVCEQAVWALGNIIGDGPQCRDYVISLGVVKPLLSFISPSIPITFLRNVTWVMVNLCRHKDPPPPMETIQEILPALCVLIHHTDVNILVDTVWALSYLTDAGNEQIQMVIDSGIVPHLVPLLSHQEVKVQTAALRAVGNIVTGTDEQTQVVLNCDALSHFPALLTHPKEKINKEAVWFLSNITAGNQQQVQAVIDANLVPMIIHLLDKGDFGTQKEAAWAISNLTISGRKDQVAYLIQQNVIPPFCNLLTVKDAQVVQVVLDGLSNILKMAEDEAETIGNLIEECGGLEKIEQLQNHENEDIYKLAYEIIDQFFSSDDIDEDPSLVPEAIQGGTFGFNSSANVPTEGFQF

Tests used:
[1] = target: ΔNLS-p50/ΔNLS-p50 homodimer (human) (UniProt P19838); assay: ELISA; NF-κB hetero/homodimers (200 ng) coated on MaxiSorp plates; His-importin α 1000 to 0 nM in PBST, room temperature 1 h; anti-6xHis-HRP; one-site specific binding fit; both purified
[2] = target: ΔNLS-p65/ΔNLS-p65 homodimer (human) (UniProt Q04206); assay: as above
[3] = target: His-ΔIBB-importin α3 (human) (UniProt O00629); assay: crystal structure; His-ΔIBB-importin α3 with p50- and p65-NLS peptides; 0.2 M ammonium sulfate, 0.1 M BIS-TRIS pH 6.5, 25% PEG 3350; PDB 7LF4; both purified
[4] = target: His-ΔIBB-importin α3 (human) (UniProt O00629); assay: crystal structure; His-ΔIBB-importin α3 with 2.5-fold molar excess of p50-NLS peptide; 0.2 M potassium thiocyanate, 20% PEG3350, 0.1 M BIS-TRIS pH 6.5; PDB 7LFC; both purified

binding [1] | binding [2] | binding [3] | binding [4] | Molecule
no binding (tested: 1000 nM) | no binding (tested: 1000 nM) |  |  | His-ΔIBB-importin α3 (from UniProt O00629) (domain or fragment)
 |  | binds |  | DRHRIEEKRKRTYETFKSIMKK [p65-NLS peptide]
 |  | binds | binds | DKEEVQRKRQKLMP [p50-NLS peptide]

No constants are given. Whether binding was seen depends on the method and setting. For some assays here: A result given as binding can be weak or reduced; the word gives no strength.
